Results are given in words; binding and its absence hold for the method and conditions named. Some binding calls cover weakened binding; strength is not graded here. Sequences can lack the tags named with a protein.
T1: Recombinant soluble NRP1 (sNRP1) protein containing His6 and c-Myc domain tags (human) (UniProt O14786)
T1 sequence (looked up): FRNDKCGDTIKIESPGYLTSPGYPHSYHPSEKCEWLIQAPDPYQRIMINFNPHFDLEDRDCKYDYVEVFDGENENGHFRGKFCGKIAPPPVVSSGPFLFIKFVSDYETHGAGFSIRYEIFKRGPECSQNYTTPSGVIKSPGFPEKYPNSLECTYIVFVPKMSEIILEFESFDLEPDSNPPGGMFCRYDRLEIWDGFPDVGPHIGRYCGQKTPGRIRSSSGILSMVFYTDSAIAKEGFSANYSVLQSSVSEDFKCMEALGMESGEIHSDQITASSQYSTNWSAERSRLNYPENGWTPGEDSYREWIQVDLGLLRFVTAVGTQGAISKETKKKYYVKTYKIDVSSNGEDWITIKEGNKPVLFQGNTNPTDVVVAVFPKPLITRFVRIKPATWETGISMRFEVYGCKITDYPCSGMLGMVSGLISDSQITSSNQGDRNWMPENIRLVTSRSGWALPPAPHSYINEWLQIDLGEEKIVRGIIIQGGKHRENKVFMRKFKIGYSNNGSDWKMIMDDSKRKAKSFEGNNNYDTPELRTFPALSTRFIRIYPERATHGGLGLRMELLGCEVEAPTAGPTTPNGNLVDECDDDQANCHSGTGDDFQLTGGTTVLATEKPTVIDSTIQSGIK

B1: phage-displayed peptide 4-1 (peptide)
peptide: RRPRMLT
B2: phage-displayed peptide 4-2 (peptide)
peptide: QLRRQRR
B3: phage-displayed peptide 4-3 (peptide)
peptide: HSRRMRK
B4: phage-displayed peptide 4-5 (peptide)
peptide: RSRRIRL
B5: phage-displayed peptide 4-9 (peptide)
peptide: MKRRPRK
B6: phage-displayed peptide 4-28 (peptide)
peptide: RRLRRRR
B7: phage-displayed peptide 4-40 (peptide)
peptide: PIRRQRL
B8: phage-displayed peptide 4-43 (peptide)
peptide: RRSRQSR
B9: phage-displayed peptide 4-53 (peptide)
peptide: HKRRIRQ
B10: cyclic peptide DG2 (…) (peptide)
peptide: CRSRRIRLC
modifications: cyclic peptide; cysteine-linked cyclic conformation
B11: cyclic peptide DG1 (…) (peptide)
peptide: CRRPRMLTC
modifications: cyclic peptide; cysteine-linked cyclic conformation

Each binder was assayed against T1, Recombinant soluble NRP1 (sNRP1) protein containing His6 and c-Myc domain tags (human) (assay: phage display biopanning on plate-coated sNRP1, four rounds).

Question: Which binding does the source give for B1 here?
Answer: binds

Question: Which binding does the source give for B2 here?
Answer: binds

Question: For B3, which binding is on record?
Answer: binds

Question: B4 was tested. Which binding did it give?
Answer: binds

Question: Which binding does the source give for B5 here?
Answer: binds

Question: B6 was tested. Which binding did it give?
Answer: binds

Question: For B7, which binding is on record?
Answer: binds

Question: With B8 as the binder, how does the binding read?
Answer: binds

Question: How did the binding turn out when B9 was run?
Answer: binds

The binders below were run against T1, Recombinant soluble NRP1 (sNRP1) protein containing His6 and c-Myc domain tags (human) (assay: figure legend (FIG. 5)).

Question: With B10 as the binder, how does the binding read?
Answer: binds

Question: With B11 as the binder, how does the binding read?
Answer: binds

Each binder was assayed against T1, Recombinant soluble NRP1 (sNRP1) protein containing His6 and c-Myc domain tags (human) (assay: SPR (Biacore)).

Question: Which binding does the source give for B11 here?
Answer: binds
